Results deposited as PubChem BioAssay AID1259308 (NCATS, 2017).

- Test: 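Genes whose loss raises luciferase production in HEK293 cells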 (primary screen)
- Cells: human HEK293 embryonic kidney cells stably expressing firefly luciferase (HEK-CMV-Luc2-Hygro)
- Knock-down reagent: single siRNA against human genes, 0.8 pmol siRNA per well
- Time to read-out: 72 h
- Detection: 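Luciferase light (ONE-Glo) measured on one replicate plate set and viability (CellTiter-Glo) on the other, scaled to a negative control siRNA, with robust z-scores and luciferase per cell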
- Direction: total luciferase, z-score and total luciferase, % of control: higher = more reporter protein produced
- Call rule: 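An siRNA counts as active if its total luciferase robust z-score exceeds 3; genes with two or more such siRNAs out of three were retested with fresh siRNAs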
- Meaning of the calls: active = raised luciferase; inactive = no rise
This is a random part of about 59,000 reagents tested. Over the whole deposit, about 1,510 (2.6%) were called active. 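Calls use total luciferase alone and ignore viability, so some active siRNAs may act by altering cell number.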 The numbers tell different reagents against one gene apart. Not all columns of the deposit are shown.

| gene symbol | siRNA no. | total luciferase, z-score | total luciferase, % of control | activity call |
| --- | --- | --- | --- | --- |
| TMEM202 | 1 | -0.403 | 73.9 | inactive |
| TMEM202 | 2 | 1.03 | 102 | inactive |
| TMEM202 | 3 | 0.243 | 86.7 | inactive |
| C1orf198 | 1 | 2.84 | 138 | inactive |
| C1orf198 | 2 | 0.264 | 87.1 | inactive |
| C1orf198 | 3 | -0.385 | 74.2 | inactive |
| DUS1L | 1 | -0.0237 | 81.4 | inactive |
| DUS1L | 2 | -0.583 | 70.3 | inactive |
| DUS1L | 3 | 1.6 | 114 | inactive |
| TSNAX | 1 | 2.31 | 128 | inactive |
| TSNAX | 2 | -0.251 | 76.9 | inactive |
| TSNAX | 3 | 2.08 | 123 | inactive |
| HSP90AB1 | 1 | -0.635 | 69.2 | inactive |
| HSP90AB1 | 2 | -0.268 | 76.5 | inactive |
| HSP90AB1 | 3 | -0.534 | 71.3 | inactive |
| CMBL | 1 | -1.2 | 58 | inactive |
| CMBL | 2 | -0.361 | 74.7 | inactive |
| CMBL | 3 | -0.881 | 64.4 | inactive |
| SPEM2 | 1 | -3.1 | 20.2 | inactive |
| SPEM2 | 2 | -0.521 | 71.5 | inactive |
| SPEM2 | 3 | -0.305 | 75.8 | inactive |
| TRAPPC1 | 1 | 3.55 | 152 | active |
| TRAPPC1 | 2 | -0.671 | 68.5 | inactive |
| TRAPPC1 | 3 | -0.198 | 77.9 | inactive |
| ERFE | 1 | -1.05 | 61 | inactive |
| ERFE | 2 | -1.07 | 60.6 | inactive |
| ERFE | 3 | -0.312 | 75.7 | inactive |
| OR3A1 | 1 | 0.783 | 97.5 | inactive |
| OR3A1 | 2 | 0.607 | 93.9 | inactive |
| OR3A1 | 3 | 1.75 | 117 | inactive |
| RNF227 | 1 | 0.899 | 99.8 | inactive |
| RNF227 | 2 | 0.667 | 95.2 | inactive |
| RNF227 | 3 | -0.894 | 64.1 | inactive |
| CLDN16 | 1 | 0.521 | 92.2 | inactive |
| CLDN16 | 2 | 0.842 | 98.6 | inactive |
| CLDN16 | 3 | 4.95 | 180 | active |
| SLAIN1 | 1 | 0.216 | 86.2 | inactive |
| SLAIN1 | 2 | -0.838 | 65.2 | inactive |
| SLAIN1 | 3 | 1.59 | 114 | inactive |
| KDM2B | 1 | 0.61 | 94 | inactive |
| KDM2B | 2 | 0.198 | 85.8 | inactive |
| KDM2B | 3 | -1.18 | 58.4 | inactive |
| HAPLN1 | 1 | 0.261 | 87.1 | inactive |
| HAPLN1 | 2 | -0.305 | 75.8 | inactive |
| HAPLN1 | 3 | 1.29 | 108 | inactive |
| DUSP1 | 1 | 1.08 | 103 | inactive |
| DUSP1 | 2 | -0.551 | 70.9 | inactive |
| DUSP1 | 3 | -0.846 | 65.1 | inactive |
| DHRS13 | 1 | -0.0163 | 81.6 | inactive |
| DHRS13 | 2 | 1.02 | 102 | inactive |
| DHRS13 | 3 | 0.641 | 94.6 | inactive |
| DNPEP | 1 | -1.56 | 50.8 | inactive |
| DNPEP | 2 | 2.69 | 135 | inactive |
| DNPEP | 3 | -0.745 | 67.1 | inactive |
| OR2M5 | 1 | 0.476 | 91.4 | inactive |
| OR2M5 | 2 | 0.0583 | 83 | inactive |
| OR2M5 | 3 | 0.307 | 88 | inactive |

A run of entries from the list above, as a working copy:
| gene symbol | siRNA no. | total luciferase, z-score | total luciferase, % of control | activity call |
| --- | --- | --- | --- | --- |
| C1orf198 | 1 | 2.84 | 138 | inactive |
| C1orf198 | 2 | 0.264 | 87.1 | inactive |
| C1orf198 | 3 | -0.385 | 74.2 | inactive |
| DUS1L | 1 | -0.0237 | 81.4 | inactive |
| DUS1L | 2 | -0.583 | 70.3 | inactive |
| DUS1L | 3 | 1.6 | 114 | inactive |
| TSNAX | 1 | 2.31 | 128 | inactive |
| TSNAX | 2 | -0.251 | 76.9 | inactive |
| TSNAX | 3 | 2.08 | 123 | inactive |
